In patent publication US4806566A, “Anti-gram positive bacteria tri-yne carbonates” (Merck & Co., Inc., priority 1987, dated 1989):
≈ marks a conversion by molar mass, not a printed value.

System: Staphyloccoccus aureus methicillin-resistant (S. aureus Meth-R)
Experiment: Minimum inhibitory concentration, agar dilution, methicillin-resistant Staphylococcus aureus
Format: cell-based
Settings: 24 h, one isolate per line, 10^4 cfu/spot, trypticase soy agar, 24 hours at 35° C.
Description: The free acid of the compound of formula I was prepared as aqueous solutions at a concentration of 1.28 mg/ml. Comparative agents vancomycin and streptomycin were prepared at 1.28 mg/ml in Sorensens' buffer, pH 7.
Each of the drugs was serially diluted twofold in 20×100 mm sterile petri dishes with the aid of a Pipetman. To each plate containing 1 ml of the antibiotic dilution was added 9 ml molten trypticase soy agar (TSA) (BBL) to yield final drug concentrations ranging from 128-0.031 mcg/ml. Plates were swirled to mix, allowed to solidify at room temperature and were stored overnight at 5° C.
Cultures were grown in trypticase soy broth (TSB) for 16 hours at 35° C. They were diluted 1-100 in TSB to obtain an inoculum of 10^4 cfu/spot when plated using a Denley multipoint inoculator calibrated to deliver 0.0015 ml. Inoculated plates were incubated for 24 hours at 35° C.
The minimum inhibitory concentration (MIC) was defined as the lowest concentration that allowed no growth or a barely visible haze.

Compound `CN[C@H](CC(C)C)C(=O)N[C@H]1C(=O)N[C@@H](CC(N)=O)C(=O)N[C@H]2C(=O)N[C@H]3C(=O)N[C@H](C(=O)N[C@H](C(=O)O)c4cc(O)cc(O)c4-c4cc3ccc4O)[C@H](O)c3ccc(c(Cl)c3)Oc3cc2cc(c3O[C@@H]2O[C@H](CO)[C@@H](O)[C@H](O)[C@H]2O[C@H]2C[C@](C)(N)[C@H](O)[C@H](C)O2)Oc2ccc(cc2Cl)[C@H]1O` [Vancomycin] has an MIC of 2 µg/mL (≈ 1.38 µM).
